Reference: patent publication US20120263734A1
No constants are given. Whether binding was seen depends on the method and setting. Some results given as binding are weak or reduced against the parent protein; the word gives no strength.

T1: polypeptide corresponding to the CMV gp116 epitope AD2 site (CMV)
T1 sequence (peptide): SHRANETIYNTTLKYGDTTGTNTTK


Molecular target: T1, polypeptide corresponding to the CMV gp116 epitope AD2 site (CMV)
Assay: ELISA on UV-inactivated CMV virus with the AD2 peptide as soluble competitor

Row | Binder | binding
1 | 2F10 human anti-CMV antibody (antibody, V domains shown) VH: QVHLVESGGGVVQPGRALRLSCAATGFTFSNHGIHWVRQAPGKGLEWLAVISSDGDDDRYADSVKGRFSVSRDNSKNTVHLQMNGLRPDDTAIYFCARDGRCGEPKCYSGLPDYWGRGTLVTVSS VL: EIVLTQSPATLSLSPGDRATLSCRASQSVGGYLAWYQQKPGQAPRLLLYDASNRATGIPARFSGSGSGTDFTLTISSLEPEDFALYYCLQRNTWPPLTFGGGTKVEIKR | binds
2 | 2N9 human anti-CMV antibody (antibody, V domains shown) VH: QVQLVESGGGVVQPGRSLRLSCAASGFTFSSNGIHWVRQAPGKGLDWVAVISSDANDKQYADSVKGRFTISRDNSKNMVYLQMNSLRVEDTAVYFCARDGTCSGGNCYSGLIDYWGRGILVTVSS VL: EIVLTQSPATLSLSPGERATLSCRASQSVGGYLAWYQQKPGQAPRLLIYDASIRATGIPARFSGSGSGTDFTLTISSLEPEDFAVYYCHQRSNWPPLTFGGGTKVDIKR | binds
3 | 4P12 human anti-CMV antibody (antibody, V domains shown) VH: QVQLVESGGGVIQPGRSLRLSCVASKFIFSNHGIHWVRQAPGKGLEWVAVISKDGTNAHYADSVRGRFSISRDNSKDTVFLEMRSLRPEDTAVYYCAREGRCIEENCYSGQIDYWGQGSLVTVSS VL: EILLTQSPATLSLSPGERATLSCRASQSVGRYMAWYQQRPGQAPRLLIYDASIRATGIPARFSGSGSGTDFTLTISSLQPEDFAIYYCQQRSSWPPLTFGGGTKVEIKR | binds
